This note sets out measurements from paper PMC11758394, “VCP downstream metabolite glycerol-3-phosphate (G3P) inhibits CD8^+T cells function in the HCC microenvironment” (Signal Transduction and Targeted Therapy, 2025).

Chains of the proteins cited; added tags and fusions are not shown. A line that says so, or that is headed by a name, gives the form on record, which may keep a tag or linker. Residues count along the entry.
FLAG-tagged D1 domain of VCP (208-470 aa) (P55072, residues 208-470): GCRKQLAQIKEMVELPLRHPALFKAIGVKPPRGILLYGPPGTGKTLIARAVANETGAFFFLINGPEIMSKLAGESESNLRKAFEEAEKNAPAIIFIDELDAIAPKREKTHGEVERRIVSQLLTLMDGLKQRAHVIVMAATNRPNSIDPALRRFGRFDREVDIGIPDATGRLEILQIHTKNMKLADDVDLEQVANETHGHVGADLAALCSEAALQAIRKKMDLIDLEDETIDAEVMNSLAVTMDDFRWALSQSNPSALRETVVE

Assay [1] addresses T1, HA-tagged GPD1L fragment 192-351 aa (UniProt Q8N335).
T1 sequence: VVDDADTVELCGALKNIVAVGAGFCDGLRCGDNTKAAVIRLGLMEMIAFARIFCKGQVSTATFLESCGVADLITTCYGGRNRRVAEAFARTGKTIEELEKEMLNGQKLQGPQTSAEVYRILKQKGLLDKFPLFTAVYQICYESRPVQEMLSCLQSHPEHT
The experiment in a line: co-IP; HCCLM3 or HEK293T (293T) cells co-transfected with FLAG- and HA-tagged plasmids for 48 h; lysis in 20 mM HEPES pH 7.4, 150 mM NaCl, 1 mM EDTA, 0.1% Triton X-100; FLAG or HA magnetic beads, 4 °C, 4 h; immunoblot.

The target in assay [2] is FLAG-VCP (valosin-containing protein) (UniProt P55072). Described as above.
For assay [3], the target named is FLAG-tagged D1 domain of VCP (208-470 aa) (UniProt P55072). The assay is described as above.
Assay [4] addresses endogenous VCP (human (endogenous in HCCLM3)) (UniProt P55072). Kind of assay: co-IP; HCCLM3 cell lysates immunoprecipitated with control IgG or anti-VCP antibodies; immunoprecipitates blotted.
The target in the next assay is GST-VCP fusion protein (UniProt P55072). Kind of assay: pull-down; GST pull-down: GST fusion protein (10 μg) and His fusion protein (10-20 μg) mixed in 50 mM Tris-HCl pH 7.4, 150 mM NaCl, 1 mM EDTA, 5% glycerol, 0.1% Triton X-100, 1 mM DTT, 4 °C, 4 h; immunoblot; both purified. On the technique in general: Immunoblotting shows a protein as a band on a membrane.
In another assay the target is HA-VCP (UniProt P55072). The experiment in a line: co-IP; HCCLM3 or HEK293T (293T) cells co-transfected with FLAG- and HA-tagged plasmids for 48 h; lysis in 20 mM HEPES pH 7.4, 150 mM NaCl, 1 mM EDTA, 0.1% Triton X-100; FLAG or HA magnetic beads, 4 °C, 4 h; immunoblot.

Results are given in words; binding and its absence hold for the method and conditions named. For part of these data: In cells and extracts the contact can be indirect. Some results given as binding are weak or reduced against the parent protein; the word gives no strength. For part of these data: Sequences can lack the tags named with a protein.

As for “FLAG-VCP (valosin-containing protein) (from UniProt P55072 1-806)”, the binding entry in assay [1] is listed as “binds”.

B1: HA-GPD1L (glycerol-3-phosphate dehydrogenase 1-like protein) (protein, UniProt Q8N335 1-351)
chain: MAAAPLKVCIVGSGNWGSAVAKIIGNNVKKLQKFASTVKMWVFEETVNGRKLTDIINNDHENVKYLPGHKLPENVVAMSNLSEAVQDADLLVFVIPHQFIHRICDEITGRVPKKALGITLIKGIDEGPEGLKLISDIIREKMGIDISVLMGANIANEVAAEKFCETTIGSKVMENGLLFKELLQTPNFRITVVDDADTVELCGALKNIVAVGAGFCDGLRCGDNTKAAVIRLGLMEMIAFARIFCKGQVSTATFLESCGVADLITTCYGGRNRRVAEAFARTGKTIEELEKEMLNGQKLQGPQTSAEVYRILKQKGLLDKFPLFTAVYQICYESRPVQEMLSCLQSHPEHT
As for B1, the binding entry in assay [2] and in assay [3] was “binds” throughout.

B2: endogenous GPD1L (protein, UniProt Q8N335 1-351)
chain: MAAAPLKVCIVGSGNWGSAVAKIIGNNVKKLQKFASTVKMWVFEETVNGRKLTDIINNDHENVKYLPGHKLPENVVAMSNLSEAVQDADLLVFVIPHQFIHRICDEITGRVPKKALGITLIKGIDEGPEGLKLISDIIREKMGIDISVLMGANIANEVAAEKFCETTIGSKVMENGLLFKELLQTPNFRITVVDDADTVELCGALKNIVAVGAGFCDGLRCGDNTKAAVIRLGLMEMIAFARIFCKGQVSTATFLESCGVADLITTCYGGRNRRVAEAFARTGKTIEELEKEMLNGQKLQGPQTSAEVYRILKQKGLLDKFPLFTAVYQICYESRPVQEMLSCLQSHPEHT
In the case of B2, in assay [4], the binding result was “binds”.

B3: His-GPD1L protein (protein, UniProt Q8N335 1-351)
chain: MAAAPLKVCIVGSGNWGSAVAKIIGNNVKKLQKFASTVKMWVFEETVNGRKLTDIINNDHENVKYLPGHKLPENVVAMSNLSEAVQDADLLVFVIPHQFIHRICDEITGRVPKKALGITLIKGIDEGPEGLKLISDIIREKMGIDISVLMGANIANEVAAEKFCETTIGSKVMENGLLFKELLQTPNFRITVVDDADTVELCGALKNIVAVGAGFCDGLRCGDNTKAAVIRLGLMEMIAFARIFCKGQVSTATFLESCGVADLITTCYGGRNRRVAEAFARTGKTIEELEKEMLNGQKLQGPQTSAEVYRILKQKGLLDKFPLFTAVYQICYESRPVQEMLSCLQSHPEHT
For the molecule B3, the binding entry in the assay with GST-VCP fusion protein is reported as “binds”.

B4: FLAG-GPD1L (protein, UniProt Q8N335 1-351)
chain: MAAAPLKVCIVGSGNWGSAVAKIIGNNVKKLQKFASTVKMWVFEETVNGRKLTDIINNDHENVKYLPGHKLPENVVAMSNLSEAVQDADLLVFVIPHQFIHRICDEITGRVPKKALGITLIKGIDEGPEGLKLISDIIREKMGIDISVLMGANIANEVAAEKFCETTIGSKVMENGLLFKELLQTPNFRITVVDDADTVELCGALKNIVAVGAGFCDGLRCGDNTKAAVIRLGLMEMIAFARIFCKGQVSTATFLESCGVADLITTCYGGRNRRVAEAFARTGKTIEELEKEMLNGQKLQGPQTSAEVYRILKQKGLLDKFPLFTAVYQICYESRPVQEMLSCLQSHPEHT
For B4, the binding entry in the assay with HA-VCP is listed as “binds”.
